Data as given in paper PMC2832672.
Results are given in words; binding and its absence hold for the method and conditions named. Binding seen in cells or lysates may run through a third protein. Binding can be weak; no strength is given.

Molecular target: GST::PPS, GST fusion protein containing the C-terminal end of PPS (amino acids 1370-2016) (Drosophila)
Experiment: pull-down; GST fusion proteins bound to glutathione sepharose beads, incubated with crude extracts of 3-8 hour embryos in NET buffer (150 mM NaCl, 50 mM Tris pH 7.5, 5 mM EDTA) with 0.5% NP-40; SNF detected by Western blot; only the target purified

B1: Sans-fille (SNF), endogenous in embryo extracts (protein, UniProt P43332 1-216)
chain: MEMLPNQTIYINNLNEKIKKEELKKSLYAIFSQFGQILDIVALKTLKMRGQAFVIFKEIGSASNALRTMQGFPFYDKPMQIAYSKSDSDIVAKIKGTFKERPKKVKPPKPAPGTDEKKDKKKKPSSAENSNPNAQTEQPPNQILFLTNLPEETNEMMLSMLFNQFPGFKEVRLVPNRHDIAFVEFTTELQSNAAKEALQGFKITPTHAMKITFAKK
With B1 the binding was “binds”.
